PubChem BioAssay AID686937 – Drosophila RNAi Screening Center, 2013

Aim: 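Genes in the fly needed for secretion of protein constitutively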 (primary screen)
System: Drosophila S2 cells expressing secreted horseradish peroxidase
Reagent: long dsRNA against Drosophila genes
Time to read-out: about 5.5 days (5 days dsRNA, then 12 h reporter induction)
Treatment: reporter expression induced after 5 days of dsRNA, read 12 h later; inducer not stated
Measurement: 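After 5 days of dsRNA and 12 h of reporter induction, medium peroxidase read by chemiluminescence and scored as per-plate z-score; higher values mean more reporter released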
Scale: z-score: higher = more reporter secreted into medium
The screen tested about 23,000 reagents; this is a random part of those with a known target gene and a result. 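Reduced-secretion tags in replicate 1 do not always agree with the z-scores; no criterion for assigning the tags was given.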 Reagents against one gene are numbered here. The record does not give: the amount of reagent.

| gene | reagent no. | z-score, replicate 1 | z-score, replicate 2 | z-score, replicate 3 | z-score, replicate 4 | phenotype, replicate 1 |
| --- | --- | --- | --- | --- | --- | --- |
| dl (GeneID 35047) | 1 | 0.6 | 0.28 | – | – | – |
| dl (GeneID 35047) | 2 | 0.49 | 0.12 | – | – | – |
| Bcs1 (GeneID 34360) | 1 | 0.14 | 0.25 | – | – | – |
| stol (GeneID 34921) | 1 | 0.04 | 0.21 | – | – | – |
| CG9503 (GeneID 32424) | 1 | 0.2 | 0.38 | – | – | – |
| CG9503 (GeneID 32424) | 2 | -0.41 | -0.33 | – | – | – |
| CG12992 (GeneID 32733) | 1 | 0.17 | 0.37 | – | – | – |
| Gr59f (GeneID 37726) | 1 | 0.23 | 0.26 | – | – | – |
| side-II (GeneID 3346206) | 1 | 0.48 | 0.09 | – | – | – |
| side-II (GeneID 3346206) | 2 | 0.71 | 0.17 | – | – | – |
| side-II (GeneID 3346206) | 3 | 0.24 | 0.29 | – | – | – |
| side-II (GeneID 3346206) | 4 | 0.24 | 0.2 | 0.45 | 0.03 | – |
| side-II (GeneID 3346206) | 5 | 0.64 | 0.32 | 0.7 | 1.06 | – |
| side-II (GeneID 3346206) | 6 | 1.26 | 1.44 | – | – | – |
| Phf7 (GeneID 33015) | 1 | 0.17 | 0.38 | – | – | – |
| Vsx2 (GeneID 31469) | 1 | -1.57 | -1.77 | -1.56 | -0.63 | reduced secretion |
| Vsx2 (GeneID 31469) | 2 | 0.46 | -0.08 | – | – | – |
| Vsx2 (GeneID 31469) | 3 | 0.16 | 0.49 | 0.24 | -0.09 | – |
| Vsx2 (GeneID 31469) | 4 | 0.31 | 0.46 | 0.57 | 0.3 | – |
| Ptpmeg2 (GeneID 31907) | 1 | 0.39 | 0.25 | – | – | – |
| Ptpmeg2 (GeneID 31907) | 2 | 0.47 | 0.52 | – | – | – |
| CG1239 (GeneID 40706) | 1 | -0.01 | -0.03 | – | – | – |
| Xpd (GeneID 37414) | 1 | -2.43 | -3.81 | – | – | reduced secretion |
| hook (GeneID 35169) | 1 | 0.29 | 0.17 | – | – | – |
| Hsp60A (GeneID 32045) | 1 | -0.11 | -0.17 | – | – | – |
| side-VII (GeneID 41184) | 1 | 0.38 | 0.49 | – | – | – |
| I-3 (GeneID 33068) | 1 | -0.04 | 0.06 | – | – | – |
| sqz (GeneID 42300) | 1 | 0.21 | 0.31 | – | – | – |
| CG14111 (GeneID 39497) | 1 | 0.46 | 0.34 | – | – | – |
| CG15356 (GeneID 33370) | 1 | 0.36 | 0.3 | – | – | – |
| CG14855 (GeneID 41789) | 1 | 0.63 | 0.91 | – | – | – |
| Sem1 (GeneID 50428) | 1 | -1.79 | 0.1 | – | – | reduced secretion |
| Or85b (GeneID 41007) | 1 | 0.47 | 0.43 | – | – | – |
| CtIP (GeneID 40262) | 1 | 0.4 | 0.38 | – | – | – |
| Grx1 (GeneID 40053) | 1 | -0.69 | -1.19 | – | – | – |
| LPCAT (GeneID 31899) | 1 | -1.03 | -0.53 | – | – | – |
| LPCAT (GeneID 31899) | 2 | 0.45 | 0.59 | – | – | – |
| DCP1 (GeneID 37790) | 1 | -0.3 | -0.66 | – | – | – |
| nahoda (GeneID 37641) | 1 | 0.16 | 0.25 | – | – | – |
| nahoda (GeneID 37641) | 2 | 0.41 | 0.63 | – | – | – |
| Dscam3 (GeneID 42103) | 1 | 0.05 | 0.19 | – | – | – |
| Dscam3 (GeneID 42103) | 2 | 0.34 | 0.49 | – | – | – |
| Obp99c (GeneID 43494) | 1 | 0.35 | 0.25 | – | – | – |
| CG10132 (GeneID 35239) | 1 | 0.28 | 0.27 | – | – | – |
| Cyp312a1 (GeneID 40005) | 1 | 0.11 | 0.13 | – | – | – |
| CG3557 (GeneID 33426) | 1 | 0.14 | 0.21 | – | – | – |
| alpha-Man-Ic (GeneID 318624) | 1 | 2.11 | -0.35 | – | – | – |
| CG4438 (GeneID 34257) | 1 | 0.46 | 0.45 | – | – | – |
| sphinx1 (GeneID 318005) | 1 | 0.19 | 0.43 | – | – | – |
| CCAP (GeneID 42683) | 1 | 0.33 | 0.23 | – | – | – |
| CG8401 (GeneID 36770) | 1 | 0.39 | 0.21 | – | – | – |
| CG14014 (GeneID 33784) | 1 | 0.19 | 0.57 | – | – | – |
| CG3091 (GeneID 31210) | 1 | 0 | -0.41 | – | – | – |
| CG12637 (GeneID 31996) | 1 | 0.15 | 0.33 | – | – | – |
| beg (GeneID 39910) | 1 | 0.18 | 0.29 | – | – | – |
| CG3104 (GeneID 33486) | 1 | 0.09 | 0.08 | – | – | – |
| CG31251 (GeneID 318645) | 1 | 0.43 | 0.29 | – | – | – |
| Glys (GeneID 41823) | 1 | 0.53 | 0.64 | – | – | – |
| lncRNA:CR43409 (GeneID 12798155) | 1 | 0.62 | -0.18 | – | – | – |
| Tim8 (GeneID 32081) | 1 | 0.13 | 0.05 | – | – | – |
| Hug (GeneID 41547) | 1 | 0.36 | 0.45 | – | – | – |
| CG34008 (GeneID 3885577) | 1 | 0.37 | 0.03 | – | – | – |
| Cep164 (GeneID 32563) | 1 | 0.05 | 0.18 | – | – | – |
| toe (GeneID 39418) | 1 | 0.49 | 0.13 | – | – | – |
| toe (GeneID 39418) | 2 | 0.16 | 0 | – | – | – |
| p38a (GeneID 42866) | 1 | 0.38 | 0.16 | – | – | – |
| TotA (GeneID 44121) | 1 | 0.17 | -0.17 | – | – | – |
| Naus (GeneID 37076) | 1 | 0.24 | 0.54 | – | – | – |
| Naus (GeneID 37076) | 2 | 0.57 | 0.52 | – | – | – |
| CG7069 (GeneID 42621) | 1 | 0.29 | 0.24 | – | – | – |
| CG43339 (GeneID 8674062) | 1 | 0.39 | 0.33 | – | – | – |
| EbpII (GeneID 326108) | 1 | 0.14 | 0.3 | – | – | – |
| EbpII (GeneID 326108) | 2 | 0.01 | 0.04 | – | – | – |
| CG14657 (GeneID 40602) | 1 | 0.38 | 0.56 | – | – | – |
| CG14657 (GeneID 40602) | 2 | 0.33 | 0.19 | – | – | – |
| CG7741 (GeneID 36208) | 1 | 0.44 | 0.38 | – | – | – |
| CG3841 (GeneID 34278) | 1 | 0.34 | 0.34 | – | – | – |
| Tie (GeneID 38559) | 1 | -1 | -0.52 | – | – | – |
| Tie (GeneID 38559) | 2 | 0.44 | 0.54 | – | – | – |
| orb (GeneID 42752) | 1 | -3.02 | -2.81 | – | – | reduced secretion |
| mam (GeneID 36555) | 1 | -4.2 | -3.79 | – | – | reduced secretion |
| mam (GeneID 36555) | 2 | -4.11 | -3.12 | – | – | reduced secretion |

14 of these entries, set out differently.
{"gene": "CG3104 (GeneID 33486)", "reagent no.": 1, "z-score, replicate 1": 0.09, "z-score, replicate 2": 0.08}
{"gene": "CG31251 (GeneID 318645)", "reagent no.": 1, "z-score, replicate 1": 0.43, "z-score, replicate 2": 0.29}
{"gene": "Glys (GeneID 41823)", "reagent no.": 1, "z-score, replicate 1": 0.53, "z-score, replicate 2": 0.64}
{"gene": "lncRNA:CR43409 (GeneID 12798155)", "reagent no.": 1, "z-score, replicate 1": 0.62, "z-score, replicate 2": -0.18}
{"gene": "Tim8 (GeneID 32081)", "reagent no.": 1, "z-score, replicate 1": 0.13, "z-score, replicate 2": 0.05}
{"gene": "Hug (GeneID 41547)", "reagent no.": 1, "z-score, replicate 1": 0.36, "z-score, replicate 2": 0.45}
{"gene": "CG34008 (GeneID 3885577)", "reagent no.": 1, "z-score, replicate 1": 0.37, "z-score, replicate 2": 0.03}
{"gene": "Cep164 (GeneID 32563)", "reagent no.": 1, "z-score, replicate 1": 0.05, "z-score, replicate 2": 0.18}
{"gene": "toe (GeneID 39418)", "reagent no.": 1, "z-score, replicate 1": 0.49, "z-score, replicate 2": 0.13}
{"gene": "toe (GeneID 39418)", "reagent no.": 2, "z-score, replicate 1": 0.16, "z-score, replicate 2": 0}
{"gene": "p38a (GeneID 42866)", "reagent no.": 1, "z-score, replicate 1": 0.38, "z-score, replicate 2": 0.16}
{"gene": "TotA (GeneID 44121)", "reagent no.": 1, "z-score, replicate 1": 0.17, "z-score, replicate 2": -0.17}
{"gene": "Naus (GeneID 37076)", "reagent no.": 1, "z-score, replicate 1": 0.24, "z-score, replicate 2": 0.54}
{"gene": "Naus (GeneID 37076)", "reagent no.": 2, "z-score, replicate 1": 0.57, "z-score, replicate 2": 0.52}
